# Data source: PubChem BioAssay AID720505 (Drosophila RNAi Screening Center, 2013)
# Screen: 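Knock-downs that reduce calcium influx once internal stores are emptied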 (primary screen)
# Cell system: Drosophila S2R+ cells
# Knock-down reagent: long dsRNA against Drosophila genes
# Challenge: thapsigargin (2 µM) in calcium-free buffer to empty internal stores, then 2 mM calcium added back
# Detection: 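Fluo-4 signal in 384-well plates read on a FLIPR after thapsigargin (2 µM, calcium-free) store depletion and 2 mM calcium add-back; unnormalised mean endpoint per well; screen run twice, selected wells retested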
# Reading the numbers: calcium signal and retest calcium signal: higher = more calcium entry after store depletion
# Hit rule: 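About 1500 genes called as lowering calcium entry, by varying amounts, judged against per-plate control wells with STIM1 as positive and Rho1 as negative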
# Meaning of the calls: active = called as lowering calcium entry; inactive = not called
# The screen tested about 20,000 reagents; below is an unselected part of those with a known target gene and a result. In the full data, about 2,100 (10%) are marked active. 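Raw plate signals without normalisation; calls rest on control-based scores that were not deposited; replicate 2 separates called from uncalled poorly.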 A plus sign joins genes that one reagent is predicted to hit. The record does not give: the amount of reagent, the time to read-out.
predicted target,dsRNA,"calcium signal, replicate 1","calcium signal, replicate 2","retest calcium signal, replicate 1","retest calcium signal, replicate 2",outcome
Oatp33Ea (Organic anion transporting polypeptide 33Ea),DRSC02859,98.6,132,,,inactive
CG6574,DRSC16070,178,89.5,,,inactive
t-cup (tetleys-cup),DRSC01254,232,107,,,inactive
CG12106,DRSC17805,60.4,119,,,active
CG11608,DRSC14334,133,86.5,,,inactive
ND-B15 (NADH dehydrogenase (ubiquinone) B15 subunit),DRSC06199,131,182,,,inactive
Vap33 (VAMP-associated protein 33kDa),DRSC18384,107,89.1,,,inactive
ND-B17.2 (NADH dehydrogenase (ubiquinone) B17.2 subunit),DRSC00577,151,151,,,inactive
Task6 (TWIK-related acid-sensitive K[+] channel 6),DRSC16530,171,203,,,inactive
CG12605,DRSC08286,82.2,118,,,inactive
CG3402,DRSC08567,70.7,114,,,active
CG17121,DRSC15176,202,123,,,inactive
CG11585,DRSC19410,78.8,135,,,inactive
CG14422,DRSC17919,109,142,,,inactive
CG9184,DRSC08636,122,152,113,75.9,inactive
CG9184,DRSC22184,110,247,,,inactive
rl (rolled),DRSC07833,62.5,158,,,inactive
rl (rolled),DRSC20742,204,87.9,,,inactive
rl (rolled),DRSC21814,129,80.8,,,inactive
CG8584,DRSC07217,127,171,,,inactive
NTPase,DRSC00761,127,140,,,inactive
CG1824,DRSC19796,66.8,86.2,,,inactive
Toll-4,DRSC03458,111,120,,,inactive
ATP7,DRSC19819,72,131,,,active
Nep6 (Neprilysin 6),DRSC19877,167,110,,,inactive
cib (ciboulot),DRSC18660,225,124,8616,141,inactive
CG4676,DRSC06879,110,173,,,inactive
smp-30 (Senescence marker protein-30),DRSC17059,71.3,110,,,inactive
CG30376,DRSC05086,92,108,,,inactive
PolA1 (DNA polymerase alpha subunit 1),DRSC16640,96.1,126,,,inactive
kdn (knockdown),DRSC18328,160,99,,,inactive
FMRFaR (FMRFamide Receptor),DRSC08555,103,97,,,inactive
l(3)neo43 (lethal (3) neo43),DRSC14988,68.1,134,,,inactive
Nup62 (Nucleoporin 62kD),DRSC06970,132,95.4,,,inactive
NaCP60E (Na channel protein 60E),DRSC04307,67.7,77.2,,,active
NaCP60E (Na channel protein 60E),DRSC21351,142,112,,,inactive
elm (ethanol sensitive with low memory),DRSC12309,169,174,,,inactive
CG2211,DRSC08559,110,186,,,inactive
CG32642,DRSC18959,,,,,inactive
Chchd3 (Coiled-coil-helix-coiled-coil-helix domain containing 3),DRSC16981,149,133,,,inactive
mthl15 (methuselah-like 15),DRSC01120,165,105,,,inactive
CG13245,DRSC02243,105,88.9,,,inactive
CG32249,DRSC08101,7432,127,,,inactive
CG32249,DRSC08177,87.8,68.5,,,inactive
CG32249,DRSC22444,138,198,,,inactive
CG14154,DRSC10156,81.6,63.2,,,inactive
CG33177,DRSC19949,71.4,113,,,active
Cog8 (Component of oligomeric golgi complex 8),DRSC02961,106,137,,,inactive
CG42613,DRSC14769,101,86.7,,,inactive
CG42613,DRSC15802,126,149,,,inactive
CG42613,DRSC22613,98.1,180,,,inactive
CG13850,DRSC14700,185,203,,,inactive
CG6569,DRSC16067,167,180,,,inactive
CG9667,DRSC16535,70.1,189,,,active
pins (partner of inscuteable),DRSC17043,73.7,81.9,,,active
Grasp65,DRSC10917,83.2,107,,,inactive
up (upheld),DRSC20382,120,74.2,,,inactive
CG13742 + CNT1,DRSC06413,83.2,141,,,inactive
Vps35 (Vacuolar protein sorting 35),DRSC04519,88.3,89,,,inactive
"MetRS-m (Methionyl-tRNA synthetase, mitochondrial)",DRSC16443,145,130,,,inactive
"MetRS-m (Methionyl-tRNA synthetase, mitochondrial)",DRSC16515,83.8,86.8,,,inactive
jus (julius seizure),DRSC14861,124,106,,,inactive
jus (julius seizure),DRSC14862,71.2,105,,,active
jus (julius seizure),DRSC23018,116,149,,,inactive
Cad96Cb (Cadherin 96Cb),DRSC14243,175,173,,,inactive
Cad96Cb (Cadherin 96Cb),DRSC14665,191,128,,,inactive
CG10841,DRSC14271,104,84.1,,,inactive
DIP-kappa (Dpr-interacting protein kappa),DRSC01336,203,87.8,,,inactive
DIP-kappa (Dpr-interacting protein kappa),DRSC01337,174,98,,,inactive
ric8b + ric8a,DRSC18104,98.6,90.1,,,inactive
alpha-Man-Ia (alpha-Mannosidase class I a),DRSC18162,72.1,124,,,active
alpha-Man-Ia (alpha-Mannosidase class I a),DRSC18163,70.8,114,,,active
alpha-Man-Ia (alpha-Mannosidase class I a),DRSC18735,74.8,116,,,active
alpha-Man-Ia (alpha-Mannosidase class I a),DRSC23100,136,173,,,inactive
CG13073,DRSC09956,93.4,180,,,inactive
Cyp4ae1 (Cytochrome P450 4ae1),DRSC18455,146,156,,,inactive
CG4041,DRSC18339,150,95.1,,,inactive
CG15717,DRSC19684,114,97.3,,,inactive
CG40486,DRSC20619,178,163,,,inactive
mub (mushroom-body expressed),DRSC11896,108,103,,,inactive
Gnpat (Glyceronephosphate O-acyltransferase),DRSC16960,134,93.8,,,inactive
RpL30 (Ribosomal protein L30),DRSC02087,83.7,87.2,,,inactive
Hmt-1 (Heavy metal tolerance factor 1),DRSC15555,95,163,,,inactive

Entries above whose gene name begins with N or n:
predicted target,dsRNA,"calcium signal, replicate 1","calcium signal, replicate 2","retest calcium signal, replicate 1","retest calcium signal, replicate 2",outcome
ND-B15 (NADH dehydrogenase (ubiquinone) B15 subunit),DRSC06199,131,182,,,inactive
ND-B17.2 (NADH dehydrogenase (ubiquinone) B17.2 subunit),DRSC00577,151,151,,,inactive
NTPase,DRSC00761,127,140,,,inactive
Nep6 (Neprilysin 6),DRSC19877,167,110,,,inactive
Nup62 (Nucleoporin 62kD),DRSC06970,132,95.4,,,inactive
NaCP60E (Na channel protein 60E),DRSC04307,67.7,77.2,,,active
NaCP60E (Na channel protein 60E),DRSC21351,142,112,,,inactive
